This test has as its target T1, USP2 (UniProt O75604).
T1 sequence (looked up): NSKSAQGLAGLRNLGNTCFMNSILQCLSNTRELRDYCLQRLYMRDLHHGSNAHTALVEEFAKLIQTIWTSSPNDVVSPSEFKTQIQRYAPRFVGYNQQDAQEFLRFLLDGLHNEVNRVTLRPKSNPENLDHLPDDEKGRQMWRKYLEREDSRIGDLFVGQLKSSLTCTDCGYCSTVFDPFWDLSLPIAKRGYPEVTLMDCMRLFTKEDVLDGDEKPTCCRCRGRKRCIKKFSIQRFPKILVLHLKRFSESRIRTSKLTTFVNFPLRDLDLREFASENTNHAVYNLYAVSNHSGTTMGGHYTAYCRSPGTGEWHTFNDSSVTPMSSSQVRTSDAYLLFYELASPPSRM
The experiment in a line: activity probe labeling, gel shift. Background: In EMSA bound probe runs differently from free probe, usually more slowly.

Amino acid sequences for entries named in this document (tags omitted). Residues count along the entry.
UniProt P05161, residues 2-156: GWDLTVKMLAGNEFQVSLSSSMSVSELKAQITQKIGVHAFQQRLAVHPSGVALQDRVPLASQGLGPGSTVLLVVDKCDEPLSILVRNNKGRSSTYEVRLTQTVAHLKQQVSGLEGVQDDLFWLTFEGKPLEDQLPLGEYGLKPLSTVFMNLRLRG

No constants are given. Whether binding was seen depends on the method and setting. Some binding calls cover weakened binding; strength is not graded here.

In the case of HA-Isg15Vs (from UniProt P05161 2-156), the binding result was “binds”.

The record behind these values is patent US20140327158A1.
